Experimental data: paper PMC9532426, “Autophagy induction promoted by m6A reader YTHDF3 through translation upregulation of FOXO3 mRNA”
Results are given in words; binding and its absence hold for the method and conditions named. Binding seen in cells or lysates may run through a third protein. A yes stands for co-enrichment or nearness to the bait. Other partners may have been found. Each block holds one molecule with its values, some of them ahead of it.

By UniProt entry, the sequences of proteins in these tests, tags left out. Residues count along the entry.
UniProt P20029, residues 20-655: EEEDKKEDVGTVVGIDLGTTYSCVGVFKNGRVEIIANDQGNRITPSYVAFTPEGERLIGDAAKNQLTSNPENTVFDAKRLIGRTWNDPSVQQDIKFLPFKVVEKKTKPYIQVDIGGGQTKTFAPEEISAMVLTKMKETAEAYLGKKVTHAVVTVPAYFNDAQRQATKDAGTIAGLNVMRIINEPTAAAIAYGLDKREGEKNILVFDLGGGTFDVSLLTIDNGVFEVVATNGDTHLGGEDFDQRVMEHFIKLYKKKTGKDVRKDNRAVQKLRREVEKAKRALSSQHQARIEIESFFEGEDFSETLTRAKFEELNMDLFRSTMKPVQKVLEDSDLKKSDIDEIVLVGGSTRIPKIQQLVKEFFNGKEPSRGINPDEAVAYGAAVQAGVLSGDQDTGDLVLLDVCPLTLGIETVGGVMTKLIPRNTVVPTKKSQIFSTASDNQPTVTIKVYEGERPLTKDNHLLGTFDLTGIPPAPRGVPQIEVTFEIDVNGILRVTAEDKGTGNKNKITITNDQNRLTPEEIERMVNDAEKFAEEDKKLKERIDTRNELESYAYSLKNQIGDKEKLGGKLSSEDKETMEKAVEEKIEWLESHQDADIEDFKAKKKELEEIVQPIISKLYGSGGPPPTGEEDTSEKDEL

Tests used:
[1] = molecular target: FLAG-tagged METTL3 (mouse) (UniProt Q8C3P7); experiment: affinity purification with mass spectrometry; anti-FLAG immunoprecipitates from MEFs overexpressing FLAG-tagged METTL3, quantitative mass spectrometry; with or without nutrient starvation
[2] = molecular target: T1, YTHDF3 (mouse (endogenous in MEFs)) (UniProt Q8BYK6); experiment: affinity purification with mass spectrometry; anti-YTHDF3 antibody (sc-377119) crosslinked to Protein A/G Plus Agarose, MEF lysates under normal and nutrient-free conditions, overnight at 4 °C, LC-MS/MS; mouse IgG as control
T1 sequence: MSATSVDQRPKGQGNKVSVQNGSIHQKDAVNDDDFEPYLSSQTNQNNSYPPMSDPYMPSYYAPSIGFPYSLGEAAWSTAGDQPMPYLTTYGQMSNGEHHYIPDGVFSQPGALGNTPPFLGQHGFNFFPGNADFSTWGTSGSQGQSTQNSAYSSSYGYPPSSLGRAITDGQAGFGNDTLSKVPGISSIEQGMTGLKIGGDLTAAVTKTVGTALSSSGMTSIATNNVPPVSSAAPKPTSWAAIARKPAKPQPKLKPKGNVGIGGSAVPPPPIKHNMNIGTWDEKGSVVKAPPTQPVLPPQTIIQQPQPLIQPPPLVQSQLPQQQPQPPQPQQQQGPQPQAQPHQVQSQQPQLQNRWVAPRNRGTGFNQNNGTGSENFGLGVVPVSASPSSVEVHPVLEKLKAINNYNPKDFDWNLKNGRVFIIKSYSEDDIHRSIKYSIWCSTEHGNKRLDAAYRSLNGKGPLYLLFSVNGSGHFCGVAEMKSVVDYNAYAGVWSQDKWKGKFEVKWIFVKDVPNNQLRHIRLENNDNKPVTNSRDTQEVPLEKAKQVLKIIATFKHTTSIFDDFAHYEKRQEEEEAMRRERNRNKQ

B1: FBL (protein, UniProt P35550 1-327)
chain: MKPGFSPRGGGFGGRGGFGDRGGRGGGRGGRGGFGGGRGGFGGGGRGRGGGGGGFRGRGGGGGRGGGFQSGGNRGRGGGRGGKRGNQSGKNVMVEPHRHEGVFICRGKEDALVTKNLVPGESVYGEKRVSISEGDDKIEYRAWNPFRSKLAAAILGGVDQIHIKPGAKVLYLGAASGTTVSHVSDIVGPDGLVYAVEFSHRSGRDLINLAKKRTNIIPVIEDARHPHKYRMLIAMVDVIFADVAQPDQTRIVALNAHTFLRNGGHFVISIKANCIDSTASAEAVFASEVKKMQQENMKPQEQLTLEPYERDHAVVVGVYRPPPKVKN
binding [2]: binds

B3: FAM120A (protein, UniProt Q6A0A9 1-1112)
chain: MGVQGFQDYIEKHCPSAVVPVELQKLARGSLVGGGRQRPPQTPLRLLVDADNCLHRLYGGFYTDWVSGGQWNHMLGYLAALAKACFGGNIELFVFFNGALEKARLHEWVKRQGNERQTAQQIVSHVQNKGTPPPKVWFLPPVCMAHCIRLALIRFHVKVAQSIEDHHQEVIGFCRENGFHGLVAYDSDYALCNIPYYFSAHALKLSRNGKSLTTSQYLMHEVAKQLDLNPNRFPIFAALLGNHILPDEDLASFHWSLLGPEHPLASLKVRAHQLVLPPCDVVIKAVADYVRNIHDTSDLDAIAKDVFQHSQSRTDDKVIRFKRAVGYYSATSKPMPFHPPHYLARPNPFGMPGMVPPYVPPQMLNIPQTSLQAKPAVPQVPSPGGTPGQAPYPYSLSEPALTLDTSGKNLTEQNSYSNIPHEGKHTPLYERSSPINLAQSGSPNHVDSAYFPGSSTSSSSDNDEGGGGATNHISGNKIGWEKTGSHAEPLARGDPGDQVKVEGSSTASSGSQLAEGKGSHMGTVQPIPCLLSMPTRNHMDITTPPLPPVAPEVLRVAEHRHKKGLMYPYIFHILTKGEIKIAVSIEDEANKDLPPAALLYRPVRQYVYGVLFSLAESRKKTERLAFRKNRLPPEFSPLIIKEWAAYKGKSPQTPELVEALAFREWTCPNLKRLWLGKAVEDKNRRMRAFLACMRSDTPAMLNPANVPTHLMVLCCVLRYMVQWPGARILRRQELDAFLAQALSPKLYEPDQLQELKIDNLDPRGIQLSALFMSGVDMALFANDACGQPIPWEHCCPWMYFDGKLFQSKLLKASREKTPLIDLCDGQAEQAAKVEKMRQSILEGLSFSRQNHPLPFPPPPALPFYPASVYPRHFGPVPPSQGRGRGFAGVCGFGGHYGETVATGPYRAFRVTAASGHCGAFSGSDSSRTSKSQGGVQPIPSQGGKLEIAGTVVGHWAGSRRGRGGRGPFPLQVVSVGGPARGRPRGVISTPVIRTFGRGGRYYGRGYKSQGAIQGRPPYAASAEEVAKELKSKSGESKSSAVSLAENGVMAEEKPVPQLNGSTGDPRVPSHSESALNNDSKPCNTNPHLNALSTDSACRREAALEAAVLNKEE
binding [2]: binds

Next, values leading:

binding [1]: binds
Molecule: HSPA5 (from UniProt P20029 20-655)

binding [2]: binds
B2: RBM3 (protein, UniProt O89086 1-153)
chain: MSSEEGKLFVGGLNFNTDEQALEDHFSSFGPISEVVVVKDRETQRSRGFGFITFTNPEHASDAMRAMNGESLDGRQIRVDHAGKSARGSRGGAFGGRGRSYSRGGGDQGYGSGRYDSRPGGYGYGYGRSRDYSGSQGGYDRYSGGNYRDNYDN
